No constants are given. Whether binding was seen depends on the method and setting.
Molecular target: T1, coagulation factor XIII A subunit after cleavage by thrombin (activation peptide FXIII-AP cut off at Arg37-Gly38) (human) (UniProt P00488)
T1 sequence: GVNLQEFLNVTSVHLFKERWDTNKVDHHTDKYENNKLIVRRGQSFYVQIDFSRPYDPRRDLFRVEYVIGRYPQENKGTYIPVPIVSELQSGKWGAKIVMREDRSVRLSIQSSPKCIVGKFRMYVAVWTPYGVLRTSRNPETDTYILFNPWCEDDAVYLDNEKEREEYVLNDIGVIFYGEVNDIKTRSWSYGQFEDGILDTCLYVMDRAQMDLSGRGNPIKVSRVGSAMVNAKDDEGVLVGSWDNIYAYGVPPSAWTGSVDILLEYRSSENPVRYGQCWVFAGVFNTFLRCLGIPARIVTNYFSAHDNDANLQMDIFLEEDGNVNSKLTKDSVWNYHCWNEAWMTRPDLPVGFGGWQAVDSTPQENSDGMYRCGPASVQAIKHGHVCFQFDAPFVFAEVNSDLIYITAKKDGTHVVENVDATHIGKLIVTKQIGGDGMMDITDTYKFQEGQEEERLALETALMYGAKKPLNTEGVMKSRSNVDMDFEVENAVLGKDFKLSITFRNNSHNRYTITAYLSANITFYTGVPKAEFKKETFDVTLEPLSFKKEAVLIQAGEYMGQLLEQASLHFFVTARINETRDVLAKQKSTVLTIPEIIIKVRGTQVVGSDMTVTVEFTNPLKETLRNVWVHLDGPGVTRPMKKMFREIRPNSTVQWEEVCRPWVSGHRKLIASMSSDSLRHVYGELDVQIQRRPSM
Assay: condition: only with 25 mM CaCl2 after thrombin cleavage; SEC; 25 ug purified FXIIIA2B2 incubated with 46.2 U/mL thrombin and 25 mM CaCl2, 20 mM Tris, 120 mM NaCl, pH 7.4, 60 minutes at 30 degrees; Superdex 200 PC 3.2/30; peaks checked by native PAGE and mass spectrometry; both purified

binding: no binding
B1: coagulation factor XIII B subunit (natural protein, human, UniProt P05160 21-661, looked up)
chain: EEKPCGFPHVENGRIAQYYYTFKSFYFPMSIDKKLSFFCLAGYTTESGRQEEQTTCTTEGWSPEPRCFKKCTKPDLSNGYISDVKLLYKIQENMRYGCASGYKTTGGKDEEVVQCLSDGWSSQPTCRKEHETCLAPELYNGNYSTTQKTFKVKDKVQYECATGYYTAGGKKTEEVECLTYGWSLTPKCTKLKCSSLRLIENGYFHPVKQTYEEGDVVQFFCHENYYLSGSDLIQCYNFGWYPESPVCEGRRNRCPPPPLPINSKIQTHSTTYRHGEIVHIECELNFEIHGSAEIRCEDGKWTEPPKCIEGQEKVACEEPPFIENGAANLHSKIYYNGDKVTYACKSGYLLHGSNEITCNRGKWTLPPECVENNENCKHPPVVMNGAVADGILASYATGSSVEYRCNEYYLLRGSKISRCEQGKWSSPPVCLEPCTVNVDYMNRNNIEMKWKYEGKVLHGDLIDFVCKQGYDLSPLTPLSELSVQCNRGEVKYPLCTRKESKGMCTSPPLIKHGVIISSTVDTYENGSSVEYRCFDHHFLEGSREAYCLDGMWTTPPLCLEPCTLSFTEMEKNNLLLKWDFDNRPHILHGEYIEFICRGDTYPAELYITGSILRMQCDRGQLKYPRCIPRQSTLSYQEPLRT
notes: human coagulation factor XIII B subunit from plasma, ten Sushi domains; 80 kDa; also called FXIIIB; FXIIIB2; source: purified as FXIIIA2B2 from plasma concentrate Fibrogammin P (CSL Behring), gel filtration on Superdex 200
